PubChem BioAssay AID1508615 (Milbrandt Lab, Department of Genetics, Washington …, 2020)
Hit rate of the full screen: of about 1,600 compounds, about 20 (1%) were called active.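 How the source made its calls: active means ratio of uncleaved NAD to its breakdown product ADP-ribose above 4, meaning the enzyme was inhibited; inactive means the rest.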 Some of the results follow.

Sequences of proteins named here, by UniProt entry; tags and fusion partners are left off. A change or cut given only in a name is not applied to a line headed by its entry.
UniProt Q6SZW1: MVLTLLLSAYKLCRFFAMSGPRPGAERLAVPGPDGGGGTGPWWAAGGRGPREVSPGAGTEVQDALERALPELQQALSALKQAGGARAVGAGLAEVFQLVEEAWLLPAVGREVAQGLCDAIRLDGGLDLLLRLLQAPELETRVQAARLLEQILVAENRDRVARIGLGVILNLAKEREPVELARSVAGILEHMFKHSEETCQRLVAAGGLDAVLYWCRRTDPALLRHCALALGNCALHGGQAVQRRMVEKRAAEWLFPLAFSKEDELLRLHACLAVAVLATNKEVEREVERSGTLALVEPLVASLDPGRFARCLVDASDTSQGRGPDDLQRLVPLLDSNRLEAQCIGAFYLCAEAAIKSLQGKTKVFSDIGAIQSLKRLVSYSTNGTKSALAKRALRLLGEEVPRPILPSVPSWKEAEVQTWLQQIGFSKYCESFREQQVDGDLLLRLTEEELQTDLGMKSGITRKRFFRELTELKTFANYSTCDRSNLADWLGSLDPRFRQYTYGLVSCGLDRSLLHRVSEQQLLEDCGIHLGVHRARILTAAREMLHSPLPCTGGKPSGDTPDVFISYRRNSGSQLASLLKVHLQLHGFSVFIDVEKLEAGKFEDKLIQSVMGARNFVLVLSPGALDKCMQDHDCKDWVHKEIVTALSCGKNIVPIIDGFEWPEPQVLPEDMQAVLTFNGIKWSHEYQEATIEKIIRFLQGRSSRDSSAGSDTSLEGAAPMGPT

What follows are compounds tested against NAD(+) hydrolase SARM1 (Homo sapiens) (UniProt Q6SZW1) (assay: inhibition of SAM-TIR NAD hydrolysis to ADPR – cell lysate, HPLC readout, primary screen (AID 1508615;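 further: substrate NAD at 5 µM with 60 min at 37 °C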)). Settings: HEK293T SAM-TIR lysate, NAD/ADPR ratio by HPLC; at 5 µM; stronger effect = higher value.

Row | SMILES | NAD/ADPR ratio
1 | O=C1CN=C(c2ccc[nH]2)c2cc(Cl)ccc2N1 | inactive: 3
2 | Cc1ccc2cc3c(ccc4ccccc43)c3c2c1CC3 | inactive: 3
3 | O=[N+]([O-])c1ccc(-c2ccccc2)c([As](=O)(O)O)c1 | inactive: 3
4 | COc1ccc(O)c2c(=O)c3c(OC)cc4c(c3oc12)C1C=COC1O4 (stereo not drawn) | inactive: 3
5 | COc1cc2c(cc1OC)C13CCN4CC5=CCOC6CC(=O)N2C1C6C5CC43 (stereo not drawn) (tested in a mixture with another compound) | inactive: 3
6 | CCOC(=O)c1ccc2[nH]c(-c3ccc(S(=O)(=O)F)cc3)cc(=O)c2c1 | inactive: 3
7 | c1ccc(C2NCCc3[nH]cnc32)cc1 (stereo not drawn) | inactive: 3
8 | C[C@H]1CC[C@@]2(C)[C@@H](CC[C@@H]3[C@@H]2CC[C@]2(C)[C@@H](O)CC[C@@H]32)C1 | inactive: 3
9 | CCOP(=O)(OCC)/C(C#N)=C/c1ccc(Br)cc1 | inactive: 3
10 | NN=C1C(Cl)=C(Cl)C(Cl)=C1Cl | inactive: 3
11 | O=c1cccc2n1CC1CNC[C@H]2C1 | inactive: 3
12 | c1cncc(C2Nc3cccc4cccc(c34)N2)c1 | inactive: 3
13 | CCN(CC)c1ccc(C=C2C(=O)NC(=S)NC2=O)cc1 | active: 5.3
14 | O=c1cccc2n1C[C@H]1C[C@@H]2CN2CCCC[C@@H]12 | inactive: 3
15 | N#CC12CNCC1CN=N2 (stereo not drawn) | inactive: 3
16 | c1cnc2c(c1)ccc1ncccc12 | inactive: 3
17 | Cc1nc(C)c(C(=O)N/N=C/c2ccc(N(CCCl)CCCl)cc2)s1 | inactive: 3
18 | CN1CCN(c2nc(N)cc(=O)[nH]2)CC1 | inactive: 3
19 | O=C1N[C@H]2[C@H](O)[C@H](O)[C@@H](O)[C@H](O)[C@@H]2c2cc3c(c(O)c21)OCO3 | inactive: 3
20 | CC(C)(C)c1cc(C=C(C#N)C#N)cc(C(C)(C)C)c1O | inactive: 3
21 | O=C1C[C@@H]2OCC=C3C[N+]4([O-])CC[C@]56c7ccccc7N1[C@H]5[C@H]2[C@H]3C[C@@H]64 (stereo partly drawn) | inactive: 3
22 | FCCN(CCF)c1cccc(Cl)c1 | inactive: 3

Row | SMILES | NAD/ADPR ratio
23 | C=C1C/C(=C/C)C(=O)O[C@@H]2CCN3CC=C(COC(=O)[C@]1(C)O)[C@H]23 | inactive: 3
24 | O=P(OC1=CCCCC1)(c1ccccc1)c1ccccc1 | inactive: 3
25 | O=[N+]([O-])c1cc([As](=O)(O)c2ccc(O)c([N+](=O)[O-])c2)ccc1O | inactive: 3
26 | Nc1nc(N)c2cnnn2n1 | inactive: 3
27 | O=C1/C(=C\c2ccccc2)C2OCC=C3CN4CCC56c7ccccc7N1C5C2C3CC46 (stereo not drawn) | inactive: 3
28 | CSc1nc(N)c(N=Nc2ccc([As](=O)(O)O)cc2)c(=O)[nH]1 | inactive: 3
29 | N=Cc1c(O)n(-c2ccccc2)c(=O)n(-c2ccccc2)c1=O | inactive: 3
30 | O=C1N(c2nncs2)CCN1[N+](=O)[O-] | inactive: 3
31 | CN1CCCC1c1ccc(=O)[nH]c1 (stereo not drawn) | inactive: 3
32 | CCCC(=O)N(C)C1=Nc2ccc(Cl)cc2C(c2ccccc2)=[N+]([O-])C1 | inactive: 3
33 | CN(C)P(=O)(N(C)C)N1CC1 | inactive: 3
34 | COc1ccc2c(c1)NP(=S)(Oc1ccccc1)N2 (stereo not drawn) | inactive: 3
35 | Cn1cc(C=O)c2nccnc21 | inactive: 3
36 | C1CC2NCCC3NCCC(N1)N32 (stereo not drawn) | inactive: 3
37 | CC(=O)Nc1ccc([As](=O)(O)c2ccc([N+](=O)[O-])cc2)cc1 | inactive: 3
38 | O=C(O)c1[nH]c(=O)[nH]c(=O)c1F | inactive: 3
39 | Cc1c(C(=O)c2ccccc2)c2ccccc2n1C | inactive: 3
40 | CN1C(=O)CC[C@@]2(C)C1=CC[C@@H]1[C@@H]2CC[C@@]2(C)[C@H]1CC[C@]2(C)O | inactive: 3
41 | COc1cc(C=C2C(=O)NC(=O)NC2=O)ccc1O | inactive: 3
42 | O=C(O)CN1C(=O)CN=C(c2ccccn2)c2cc(Cl)ccc21 | inactive: 3
43 | COc1cc2c(cc1O)CC1c3c(cc(O)c(OC)c3-2)CCN1C (stereo not drawn) | inactive: 3
44 | NC(=S)c1cn(C2OC(CO)C(O)C2O)c2ncnc(N)c12 (stereo not drawn) | inactive: 3

Row | SMILES | NAD/ADPR ratio
45 | CN1CCC2(O)OCCCC2C1 (stereo not drawn) | inactive: 3
46 | C/C=C/CC1(CC)C(=O)NC(=S)NC1=O | inactive: 3
47 | CCC1CN1P(=O)(Oc1ccc(Cl)cc1)N1CC1CC (stereo not drawn) | inactive: 3
48 | CN(C)C1CCc2[nH]c3c(F)cc(F)cc3c2C1 (stereo not drawn) | inactive: 3
49 | C[C@H](N)C(=O)N[C@@H]1[C@H]2C(=C(O)C[C@@H](O)[C@@H]2O)C(=O)O[C@]1(C)C(Cl)Cl | inactive: 3
50 | CC1(C)CC(=O)CC(C)(C)N1O | inactive: 3
51 | CC(=O)Nc1cc([As](=O)(O)O)ccc1O | inactive: 3
52 | COc1cccc2c1cc([N+](=O)[O-])c1c(C(=O)O)cc3c(c12)OCO3 | inactive: 3
53 | CN1C2c3ccccc3C3C4c5ccccc5C(C31)C(C2[N+](=O)[O-])N4C (stereo not drawn) | inactive: 3
54 | CC12CCC3C(CCC4Cc5[nH]c6ccccc6c5CC43C)C1CCC2O (stereo not drawn) | inactive: 3
55 | O=C(/C=C/c1ccc(O)c(O)c1)OC1C(O)CC(OC(=O)/C=C/c2ccc(O)c(O)c2)(C(=O)O)CC1O (stereo not drawn) | inactive: 3
56 | CCN1CCc2ccccc2C1 | inactive: 3
57 | CCC(C)c1cnc(CC(C)C)c(=O)n1O (stereo not drawn) | inactive: 3
58 | COC1C(OC(=O)c2ccc(C)[nH]2)C(O)C(Oc2ccc3c(O)c(NC(=O)c4ccc(O)c(CC=C(C)C)c4)c(=O)oc3c2Cl)OC1(C)C (stereo not drawn) | inactive: 3
59 | CCC(CO)NC(=O)C1C=C2c3cccc4[nH]cc(c34)CC2N(C)C1 (stereo not drawn) | inactive: 3
60 | COc1ccc(CCNC2(C#N)CCCCC2)cc1OC | inactive: 3
61 | Cc1c(CCN)ccc2c1[nH]c1ccccc12 | inactive: 3
62 | Cc1cc(OCCN2CC2)c2ccccc2n1 | inactive: 3
63 | O=C(CF)N(O)c1ccc(/C=C/c2ccccc2)cc1 | inactive: 3
64 | CC(C)(O)C1C2OC(=O)C1C1(O)CC3OC34C(=O)OC2C14C (stereo not drawn) | inactive: 3
65 | S=C1NC2(CCCCC2)NC12CCCCC2 | inactive: 3
66 | CC1CC(C)OP(=O)(OCCC#N)O1 (stereo not drawn) | inactive: 3

Row | SMILES | NAD/ADPR ratio
67 | COC12C(COC(N)=O)C3=C(C(=O)C(C)=C(N)C3=O)N1CC1C2N1C (stereo not drawn) | inactive: 3
68 | O=C(NC(=O)c1c(F)cccc1F)Nc1cc(Cl)c(F)c(Cl)c1F | inactive: 3
69 | CC(C)NC1C2CCC(CC2)C1(O)c1ccc(Cl)c(Cl)c1 (stereo not drawn) | inactive: 3
70 | COC1CC2\C=C(C)/C=C/C=C\C(=O)NC(c3ccccc3)C/C=C/CCC(O)CC(=O)C2=C1O (stereo not drawn) | inactive: 3
71 | CN1C(=O)NC(=O)C(N=Nc2ccc(Cl)cc2)C1=O (stereo not drawn) | inactive: 3
72 | COc1ccc2c(c1)C13CCN(C)C(C2)C1CCC1(C3)OCCO1 (stereo not drawn) | inactive: 3
73 | C=CCN1CC[C@]23c4c5ccc(O)c4OC2C(=O)CC[C@@]3(O)C1C5 (stereo partly drawn) | inactive: 3
74 | O=C(NCCCN1CC1)Nc1cccc2ccccc12 | inactive: 3
75 | N#CC(C#N)=Cc1ccc(C=C(C#N)C#N)cc1 | inactive: 3
76 | COc1ccc2c(c1O)[C@]13CCN(C)[C@H](C2)[C@@H]1CCC(=O)C3 | inactive: 3
77 | C=CCNC(=S)Nc1ccc(OC(=O)Nc2ccc(Cl)c(Cl)c2)cc1 | inactive: 3
78 | c1cc(C2N3CCCN2CC3)ccn1 (stereo not drawn) | inactive: 3
79 | Cc1c2ccncc2c(C)c2c1[nH]c1ccccc12 | inactive: 3
80 | CC[C@@]1(O)C(=O)OCc2c1cc1n(c2=O)Cc2cc3c(NC(=O)CN)cccc3nc2-1 | inactive: 3
81 | Oc1cccc2nc3ccccc3nc12 | inactive: 3
82 | CN1CCC(c2c[nH]c3ccccc23)C1 (stereo not drawn) | inactive: 3
83 | CCC(N)Cc1c[nH]c2ccccc12 (stereo not drawn) | inactive: 3
84 | C=C1C(=O)OC2CC3(C)OC3CC/C(C)=C\C(OC(C)=O)C12 (stereo not drawn) | inactive: 3
85 | O=C1CCC2(O)[C@@H]3Cc4ccc(O)c5c4[C@]2(CCN3Cc2ccoc2)C1O5 (stereo partly drawn) | inactive: 3
86 | COc1ccccc1[As](=O)(O)CC(O)COc1ccc(Cl)cc1Cl (stereo not drawn) | inactive: 3
87 | CC1=CC(O)C(O)C2(C)C1CC1OC(=O)C(O)C3C(C)C(O)C4(O)OCC13C42 (stereo not drawn) | inactive: 3
88 | O=C(OC1CCCCC1)c1ccccc1C(=O)OC1CCCCC1 | inactive: 3

A portion from the list above, as a working copy:
Row | SMILES | NAD/ADPR ratio
77 | C=CCNC(=S)Nc1ccc(OC(=O)Nc2ccc(Cl)c(Cl)c2)cc1 | inactive: 3
78 | c1cc(C2N3CCCN2CC3)ccn1 (stereo not drawn) | inactive: 3
79 | Cc1c2ccncc2c(C)c2c1[nH]c1ccccc12 | inactive: 3
80 | CC[C@@]1(O)C(=O)OCc2c1cc1n(c2=O)Cc2cc3c(NC(=O)CN)cccc3nc2-1 | inactive: 3
81 | Oc1cccc2nc3ccccc3nc12 | inactive: 3

Further structures

Row | SMILES | NAD/ADPR ratio
89 | Cc1ccccc1NC(=O)NCCN1CC1 | inactive: 3
90 | Cc1ccccc1-n1c(/C=C/c2ccccn2)nc2ccccc2c1=O | inactive: 3
91 | COc1cc(OC)cc(C2(C#N)CCN(C)CC2)c1 | inactive: 3
92 | CC1(C)NC(=S)C(C)(C)N1N=O | inactive: 3
93 | CCc1cc2c(cc1-c1csc(C/C(N)=N/O)n1)C(C)(C)CCC2(C)C | inactive: 3
94 | O=C1NC(=O)C(=Cc2ccc3ccccc3c2)C(=O)N1 | inactive: 3
95 | O=C1CCCN1CC#CCN1CCCC1 | inactive: 3
96 | Cc1ccc2c(c1)Oc1ccccc1N=C2 | inactive: 3
97 | CC(C)(C)n1cc(C(=O)c2ccccc2)cc1-c1ccccc1 | inactive: 3
98 | O=[As](O)(O)c1ccc(N=Nc2ccc(O)cc2)cc1 | inactive: 3
99 | CN1C2CCC1C(COC(=O)c1ccccc1)C(O)C2 (stereo not drawn) | inactive: 3
100 | CN1CCN(c2nc(N)c(Br)c(Cl)n2)CC1 | inactive: 3
101 | CN1CCc2cc3c(cc2C1)OCO3 | inactive: 3
102 | CN1CCN(c2ccc([N+](=O)[O-])c3no[n+]([O-])c23)CC1 | inactive: 3
103 | CC[C@@]1(O)C(=O)OCc2c1cc1n(c2=O)Cc2cc3ccccc3nc2-1 | inactive: 3
104 | CC1C(C)N1CC(O)Cn1ccnc1[N+](=O)[O-] (stereo not drawn) | inactive: 3
105 | COc1c(OP2(=S)OCC(C)(C)CO2)cnn(C2CCCCC2)c1=O | inactive: 3
106 | CC1=C(O)C(=O)C=C2C1=CC=C1[C@@]2(C)CC[C@@]2(C)[C@@H]3C[C@](C)(C(=O)O)CC[C@]3(C)CC[C@]12C | active: 12.8
107 | O=P(Oc1ccccc1)(Oc1ccccc1)c1ccccc1 | inactive: 3
108 | CC(=O)OC1CCC2(C)C(CCC3C2CC(=O)C2(C)C3CC(N3CC3)C2C(C)=O)C1 (stereo not drawn) | inactive: 3
